Results are given in words; binding and its absence hold for the method and conditions named. In cells and extracts the contact can be indirect. Some results given as binding are weak or reduced against the parent protein; the word gives no strength.
Molecular target: FLAG-TWIST1 (wild type) (human) (UniProt Q15672)
Experiment: co-IP; anti-FLAG M2 resin on lysates of transiently transfected HEK293T cells; lysis and washes in EBC (20 mM Tris pH 8.0, 385 mM NaCl, 2 mM EDTA, 3.5% NP40); blots with FLAG and E2A (V18) antibodies; complexes read from band sizes on SDS-PAGE

Chains of the proteins cited; added tags and fusions are not shown.
UniProt Q15672: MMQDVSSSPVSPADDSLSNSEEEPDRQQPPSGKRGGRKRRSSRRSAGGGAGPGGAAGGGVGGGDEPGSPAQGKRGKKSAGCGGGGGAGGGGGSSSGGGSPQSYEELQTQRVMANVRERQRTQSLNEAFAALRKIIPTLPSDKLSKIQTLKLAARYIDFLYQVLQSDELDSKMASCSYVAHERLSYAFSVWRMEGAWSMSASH
UniProt P15923: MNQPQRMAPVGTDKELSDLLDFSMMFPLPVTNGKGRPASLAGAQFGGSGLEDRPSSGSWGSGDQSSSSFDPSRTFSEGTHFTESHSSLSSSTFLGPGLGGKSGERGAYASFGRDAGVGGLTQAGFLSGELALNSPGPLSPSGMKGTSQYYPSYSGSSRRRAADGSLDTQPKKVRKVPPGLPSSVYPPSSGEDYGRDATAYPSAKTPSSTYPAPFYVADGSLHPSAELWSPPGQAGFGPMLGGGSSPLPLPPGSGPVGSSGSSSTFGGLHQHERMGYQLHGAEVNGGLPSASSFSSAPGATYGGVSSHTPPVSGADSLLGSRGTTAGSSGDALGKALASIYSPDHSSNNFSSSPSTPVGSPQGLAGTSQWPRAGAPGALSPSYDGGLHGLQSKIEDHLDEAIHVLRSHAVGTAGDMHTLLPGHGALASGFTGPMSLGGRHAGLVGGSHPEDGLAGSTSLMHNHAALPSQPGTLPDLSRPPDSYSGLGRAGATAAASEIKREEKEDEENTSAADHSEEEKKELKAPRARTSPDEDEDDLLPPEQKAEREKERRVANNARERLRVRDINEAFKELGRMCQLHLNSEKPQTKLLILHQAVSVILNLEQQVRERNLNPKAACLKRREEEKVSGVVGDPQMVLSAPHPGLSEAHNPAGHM

binding: binds
Substance: MYC-TAG E12 (wild type) (from UniProt P15923 1-654)
